These are yes or no findings as the source states them, for the method shown. For some assays here: In cells and extracts the contact can be indirect. Some binding calls cover weakened binding; strength is not graded here.

Chains of the proteins cited; added tags and fusions are not shown.
UniProt P21926: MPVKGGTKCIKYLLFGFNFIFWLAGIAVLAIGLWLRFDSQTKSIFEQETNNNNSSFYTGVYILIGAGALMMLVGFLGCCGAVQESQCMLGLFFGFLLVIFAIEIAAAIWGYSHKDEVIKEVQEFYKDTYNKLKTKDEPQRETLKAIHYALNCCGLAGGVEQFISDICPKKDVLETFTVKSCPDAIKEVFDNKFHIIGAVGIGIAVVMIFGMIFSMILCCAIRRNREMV

Data on two molecules can be found in article PMC10470606.

For assay [1], the target named is tetraspanin CD9 (human (endogenous in A549; the cells lysed for the co-IP are not named)) (UniProt P21926). Kind of assay: co-IP; anti-CD9 antibody (MM2/57, 4 µg) on Protein-G magnetic beads; whole cell lysates in RIPA buffer, 60 min at 4°C; washed in PBS-Triton X-100 (0.2%); blots probed with anti-CD9 or anti-SDC-1; anti-FLAG immunoprecipitation as control.
The target is the same in assay [2]. Kind of assay: fluorescence microscopy of labelled peptide on cells; 200 nM 6-carboxyfluorescein (FAM) tagged peptide on WT or CD9-/- A549 cells on coverslips, 30 min at 37°C, fixed with 2% PFA; corrected total cell fluorescence; scrambled peptide as control; only the binder purified.

B1: syndecan-1 (protein, UniProt P18827 23-310)
chain: QIVATNLPPEDQDGSGDDSDNFSGSGAGALQDITLSQQTPSTWKDTQLLTAIPTSPEPTGLEATAASTSTLPAGEGPKEGEAVVLPEVEPGLTAREQEATPRPRETTQLPTTHLASTTTATTAQEPATSHPHRDMQPGHHETSTPAGPSQADLHTPHTEDGGPSATERAAEDGASSQLPAAEGSGEQDFTFETSGENTAVVAVEPDRRNQSPVDQGATGASQGLLDRKEVLGGVIAGGLVGLIFAVCLVGFMLYRMKKKDEGSYSLEEPKQANGGAYQKPTKQEEFYA
With B1, the binding result in assay [1] is “binds”.

B2: CD9 EC2-derived peptide 800C, fluorescently labeled (peptide)
peptide: DEPQRETLKAIHYALN
modifications: 6-carboxyfluorescein moiety at the N-terminus
Consider B2, for which the binding entry in assay [2] is “binds”.
